PMC10780892
Results are given in words; binding and its absence hold for the method and conditions named. In cells and extracts the contact can be indirect. Some results given as binding are weak or reduced against the parent protein; the word gives no strength.

By UniProt entry, the sequences of proteins in these tests, tags left out. Where a name states a change or a piece, a line headed by the entry shows the natural chain unless it says otherwise.
UniProt O14842: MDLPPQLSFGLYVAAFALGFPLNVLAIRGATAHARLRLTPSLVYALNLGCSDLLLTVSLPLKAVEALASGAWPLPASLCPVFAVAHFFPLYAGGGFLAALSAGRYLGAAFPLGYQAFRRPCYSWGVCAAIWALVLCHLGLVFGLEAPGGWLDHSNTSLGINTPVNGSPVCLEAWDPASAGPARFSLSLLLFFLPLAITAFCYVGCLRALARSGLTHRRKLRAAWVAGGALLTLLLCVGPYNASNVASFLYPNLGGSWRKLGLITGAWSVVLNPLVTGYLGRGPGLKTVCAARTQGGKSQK

Target: FFA1 Y114A of the arrestin-3 interaction assays (eYFP-labelled) (human) (UniProt O14842)
Assay: FRET or BRET; arrestin-3 interaction (recruitment) assay of FFA1 wild type and Y114A, DHA concentration-response curves; receptor expression by eYFP fluorescence

binding: binds
Substance: arrestin-3 fused to NanoLuc luciferase (from UniProt P32121 1-409)
